By UniProt entry, the sequences of proteins in these tests, tags left out.
UniProt P39081: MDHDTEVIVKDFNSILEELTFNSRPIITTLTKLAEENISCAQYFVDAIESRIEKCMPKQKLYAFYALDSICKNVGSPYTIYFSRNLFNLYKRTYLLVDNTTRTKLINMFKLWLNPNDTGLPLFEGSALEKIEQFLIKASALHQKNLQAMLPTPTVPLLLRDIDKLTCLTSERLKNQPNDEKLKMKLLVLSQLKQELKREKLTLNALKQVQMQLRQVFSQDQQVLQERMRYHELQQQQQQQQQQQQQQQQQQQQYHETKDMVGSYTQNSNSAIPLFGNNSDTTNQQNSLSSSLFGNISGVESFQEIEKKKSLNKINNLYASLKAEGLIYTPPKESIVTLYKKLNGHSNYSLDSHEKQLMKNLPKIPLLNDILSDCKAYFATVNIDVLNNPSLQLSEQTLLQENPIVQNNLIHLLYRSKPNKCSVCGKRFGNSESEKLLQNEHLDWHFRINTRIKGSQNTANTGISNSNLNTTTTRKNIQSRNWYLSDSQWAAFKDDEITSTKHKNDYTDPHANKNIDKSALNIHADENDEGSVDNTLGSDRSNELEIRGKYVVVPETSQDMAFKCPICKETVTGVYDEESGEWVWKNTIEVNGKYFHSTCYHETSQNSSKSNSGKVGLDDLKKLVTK
UniProt P53538: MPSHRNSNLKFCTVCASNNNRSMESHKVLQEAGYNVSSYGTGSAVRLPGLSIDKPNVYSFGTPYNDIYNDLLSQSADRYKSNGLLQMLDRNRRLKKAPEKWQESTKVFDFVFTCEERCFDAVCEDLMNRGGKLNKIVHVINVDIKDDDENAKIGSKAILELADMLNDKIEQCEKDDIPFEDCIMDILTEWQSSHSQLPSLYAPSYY
UniProt Q08920: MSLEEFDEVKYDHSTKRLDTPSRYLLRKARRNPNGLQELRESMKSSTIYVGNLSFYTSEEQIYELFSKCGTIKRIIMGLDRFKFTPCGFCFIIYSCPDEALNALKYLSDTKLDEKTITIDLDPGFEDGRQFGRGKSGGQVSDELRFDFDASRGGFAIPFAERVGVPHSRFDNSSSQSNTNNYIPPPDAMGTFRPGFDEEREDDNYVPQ
UniProt Q00416: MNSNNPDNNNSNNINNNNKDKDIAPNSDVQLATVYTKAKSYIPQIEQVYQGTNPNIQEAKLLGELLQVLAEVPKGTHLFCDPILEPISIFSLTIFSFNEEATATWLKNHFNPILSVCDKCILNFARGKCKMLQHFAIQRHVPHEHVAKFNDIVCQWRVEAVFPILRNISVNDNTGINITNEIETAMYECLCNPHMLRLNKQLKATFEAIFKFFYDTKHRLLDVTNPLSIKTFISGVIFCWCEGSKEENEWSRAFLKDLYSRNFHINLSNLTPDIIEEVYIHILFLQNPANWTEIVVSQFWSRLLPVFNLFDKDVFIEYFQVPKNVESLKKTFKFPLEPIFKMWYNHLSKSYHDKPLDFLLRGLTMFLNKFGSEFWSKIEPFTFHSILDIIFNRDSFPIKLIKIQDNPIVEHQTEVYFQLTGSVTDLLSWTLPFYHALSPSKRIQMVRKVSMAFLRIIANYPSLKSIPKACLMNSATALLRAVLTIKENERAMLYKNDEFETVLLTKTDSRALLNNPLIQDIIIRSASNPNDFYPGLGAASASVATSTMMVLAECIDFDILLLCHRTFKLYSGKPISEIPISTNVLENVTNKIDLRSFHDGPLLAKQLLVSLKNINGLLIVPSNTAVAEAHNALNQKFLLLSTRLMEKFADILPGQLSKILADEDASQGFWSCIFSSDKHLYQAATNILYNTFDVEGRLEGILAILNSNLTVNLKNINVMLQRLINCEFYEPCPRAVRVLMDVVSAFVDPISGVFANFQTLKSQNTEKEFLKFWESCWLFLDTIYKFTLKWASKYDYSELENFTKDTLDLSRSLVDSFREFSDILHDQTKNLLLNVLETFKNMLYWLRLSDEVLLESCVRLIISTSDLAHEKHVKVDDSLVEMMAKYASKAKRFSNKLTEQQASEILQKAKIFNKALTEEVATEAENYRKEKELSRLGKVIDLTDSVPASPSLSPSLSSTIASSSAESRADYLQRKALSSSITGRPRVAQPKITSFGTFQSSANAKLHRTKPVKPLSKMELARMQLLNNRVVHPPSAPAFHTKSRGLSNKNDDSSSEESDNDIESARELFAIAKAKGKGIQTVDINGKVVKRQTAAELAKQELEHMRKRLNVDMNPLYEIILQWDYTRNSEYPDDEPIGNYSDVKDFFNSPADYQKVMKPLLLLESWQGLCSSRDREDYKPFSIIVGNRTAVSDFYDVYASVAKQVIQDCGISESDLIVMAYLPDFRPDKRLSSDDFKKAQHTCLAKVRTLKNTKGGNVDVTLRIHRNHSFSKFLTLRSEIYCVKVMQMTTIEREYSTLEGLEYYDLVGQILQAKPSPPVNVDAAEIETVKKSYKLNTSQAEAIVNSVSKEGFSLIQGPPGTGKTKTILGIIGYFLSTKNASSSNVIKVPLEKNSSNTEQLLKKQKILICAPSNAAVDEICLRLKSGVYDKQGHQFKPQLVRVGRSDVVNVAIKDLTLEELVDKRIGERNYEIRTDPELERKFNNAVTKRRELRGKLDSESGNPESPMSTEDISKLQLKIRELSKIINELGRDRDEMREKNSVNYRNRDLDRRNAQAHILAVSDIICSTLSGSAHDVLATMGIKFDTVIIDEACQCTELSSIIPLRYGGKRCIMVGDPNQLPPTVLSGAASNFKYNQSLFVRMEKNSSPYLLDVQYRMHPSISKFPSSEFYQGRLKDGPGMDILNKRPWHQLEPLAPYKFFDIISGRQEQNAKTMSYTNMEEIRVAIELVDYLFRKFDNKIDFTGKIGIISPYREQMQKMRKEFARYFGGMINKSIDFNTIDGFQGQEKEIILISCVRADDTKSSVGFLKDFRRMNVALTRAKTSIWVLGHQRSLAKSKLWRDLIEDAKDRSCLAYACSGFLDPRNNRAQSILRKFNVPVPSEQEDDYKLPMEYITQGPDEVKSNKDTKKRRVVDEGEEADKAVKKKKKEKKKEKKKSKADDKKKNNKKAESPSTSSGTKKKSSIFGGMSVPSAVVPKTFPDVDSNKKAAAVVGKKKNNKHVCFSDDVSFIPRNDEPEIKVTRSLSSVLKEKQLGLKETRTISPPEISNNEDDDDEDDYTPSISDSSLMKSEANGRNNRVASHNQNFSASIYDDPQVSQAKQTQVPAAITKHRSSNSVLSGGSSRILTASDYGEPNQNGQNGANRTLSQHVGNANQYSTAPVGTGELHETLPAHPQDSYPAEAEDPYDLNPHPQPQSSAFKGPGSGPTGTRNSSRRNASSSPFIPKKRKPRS
UniProt P29468: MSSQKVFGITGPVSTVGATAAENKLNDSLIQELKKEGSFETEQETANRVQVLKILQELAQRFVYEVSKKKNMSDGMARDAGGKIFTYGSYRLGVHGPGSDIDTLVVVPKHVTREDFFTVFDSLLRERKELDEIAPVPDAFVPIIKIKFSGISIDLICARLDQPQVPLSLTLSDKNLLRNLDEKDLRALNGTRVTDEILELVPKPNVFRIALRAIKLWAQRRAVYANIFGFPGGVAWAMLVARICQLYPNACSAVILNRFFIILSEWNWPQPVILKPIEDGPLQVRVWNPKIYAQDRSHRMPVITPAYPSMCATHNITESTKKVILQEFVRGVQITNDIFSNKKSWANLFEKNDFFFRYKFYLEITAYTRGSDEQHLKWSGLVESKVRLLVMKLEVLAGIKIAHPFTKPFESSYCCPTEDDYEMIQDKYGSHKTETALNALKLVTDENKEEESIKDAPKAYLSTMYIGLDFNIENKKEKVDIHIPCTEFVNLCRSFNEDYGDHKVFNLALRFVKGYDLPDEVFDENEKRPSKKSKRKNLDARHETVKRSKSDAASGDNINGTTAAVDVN
UniProt P08518: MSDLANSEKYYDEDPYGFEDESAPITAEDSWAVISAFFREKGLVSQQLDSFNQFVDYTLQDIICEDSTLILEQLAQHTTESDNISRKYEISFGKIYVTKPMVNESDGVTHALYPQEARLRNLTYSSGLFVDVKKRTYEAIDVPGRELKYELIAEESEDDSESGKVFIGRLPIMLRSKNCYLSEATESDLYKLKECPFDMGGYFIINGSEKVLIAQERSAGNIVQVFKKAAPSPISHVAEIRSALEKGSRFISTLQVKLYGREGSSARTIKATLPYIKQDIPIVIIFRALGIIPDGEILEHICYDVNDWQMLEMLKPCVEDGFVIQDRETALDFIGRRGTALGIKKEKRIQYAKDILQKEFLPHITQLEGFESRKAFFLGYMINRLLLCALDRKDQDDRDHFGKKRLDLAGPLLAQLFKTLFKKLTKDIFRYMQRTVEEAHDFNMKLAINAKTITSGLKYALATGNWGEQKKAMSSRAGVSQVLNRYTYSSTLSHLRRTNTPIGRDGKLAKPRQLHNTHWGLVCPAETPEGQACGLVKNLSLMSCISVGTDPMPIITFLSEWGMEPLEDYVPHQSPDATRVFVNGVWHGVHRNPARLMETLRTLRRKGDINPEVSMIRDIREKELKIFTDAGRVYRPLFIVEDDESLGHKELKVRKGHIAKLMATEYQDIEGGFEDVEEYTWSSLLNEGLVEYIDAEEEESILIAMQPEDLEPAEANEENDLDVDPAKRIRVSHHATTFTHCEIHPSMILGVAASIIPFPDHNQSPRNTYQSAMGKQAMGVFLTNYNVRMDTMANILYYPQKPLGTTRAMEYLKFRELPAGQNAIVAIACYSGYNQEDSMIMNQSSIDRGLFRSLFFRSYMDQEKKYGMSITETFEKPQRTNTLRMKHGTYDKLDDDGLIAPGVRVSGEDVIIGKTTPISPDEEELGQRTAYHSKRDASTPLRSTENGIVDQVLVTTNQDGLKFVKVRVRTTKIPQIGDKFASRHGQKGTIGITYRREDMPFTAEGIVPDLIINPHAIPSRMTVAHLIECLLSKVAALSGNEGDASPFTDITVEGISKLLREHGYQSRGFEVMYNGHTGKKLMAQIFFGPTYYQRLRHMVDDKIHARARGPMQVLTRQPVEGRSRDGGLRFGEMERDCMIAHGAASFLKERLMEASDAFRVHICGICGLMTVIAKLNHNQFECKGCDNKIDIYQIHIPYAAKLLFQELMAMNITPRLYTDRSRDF
UniProt P34160: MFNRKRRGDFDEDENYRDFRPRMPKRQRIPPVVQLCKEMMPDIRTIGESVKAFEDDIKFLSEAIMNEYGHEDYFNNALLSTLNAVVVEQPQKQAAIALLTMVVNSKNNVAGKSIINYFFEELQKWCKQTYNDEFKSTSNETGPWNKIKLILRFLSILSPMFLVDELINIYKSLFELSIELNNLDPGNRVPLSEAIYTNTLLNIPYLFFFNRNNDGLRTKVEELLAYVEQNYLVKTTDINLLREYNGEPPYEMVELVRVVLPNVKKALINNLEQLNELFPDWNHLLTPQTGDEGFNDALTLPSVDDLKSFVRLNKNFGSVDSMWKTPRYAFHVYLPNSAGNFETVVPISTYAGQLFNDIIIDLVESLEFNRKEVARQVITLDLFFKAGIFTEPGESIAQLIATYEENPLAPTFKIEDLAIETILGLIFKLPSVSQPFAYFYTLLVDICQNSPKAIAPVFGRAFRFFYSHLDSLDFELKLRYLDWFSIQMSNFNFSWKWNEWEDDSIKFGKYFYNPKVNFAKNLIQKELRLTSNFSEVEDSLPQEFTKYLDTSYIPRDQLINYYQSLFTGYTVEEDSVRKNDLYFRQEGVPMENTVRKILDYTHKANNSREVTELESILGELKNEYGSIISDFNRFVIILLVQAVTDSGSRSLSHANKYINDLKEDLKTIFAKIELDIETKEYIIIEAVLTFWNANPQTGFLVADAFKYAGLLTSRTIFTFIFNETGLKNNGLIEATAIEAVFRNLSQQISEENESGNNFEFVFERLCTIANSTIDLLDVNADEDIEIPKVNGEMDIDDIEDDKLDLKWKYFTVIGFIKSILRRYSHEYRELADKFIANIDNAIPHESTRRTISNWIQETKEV

In article PMC7105142:

T1: Nrd1-TAP (S. cerevisiae (strains isogenic to BY4741)) (UniProt P53617)
T1 sequence: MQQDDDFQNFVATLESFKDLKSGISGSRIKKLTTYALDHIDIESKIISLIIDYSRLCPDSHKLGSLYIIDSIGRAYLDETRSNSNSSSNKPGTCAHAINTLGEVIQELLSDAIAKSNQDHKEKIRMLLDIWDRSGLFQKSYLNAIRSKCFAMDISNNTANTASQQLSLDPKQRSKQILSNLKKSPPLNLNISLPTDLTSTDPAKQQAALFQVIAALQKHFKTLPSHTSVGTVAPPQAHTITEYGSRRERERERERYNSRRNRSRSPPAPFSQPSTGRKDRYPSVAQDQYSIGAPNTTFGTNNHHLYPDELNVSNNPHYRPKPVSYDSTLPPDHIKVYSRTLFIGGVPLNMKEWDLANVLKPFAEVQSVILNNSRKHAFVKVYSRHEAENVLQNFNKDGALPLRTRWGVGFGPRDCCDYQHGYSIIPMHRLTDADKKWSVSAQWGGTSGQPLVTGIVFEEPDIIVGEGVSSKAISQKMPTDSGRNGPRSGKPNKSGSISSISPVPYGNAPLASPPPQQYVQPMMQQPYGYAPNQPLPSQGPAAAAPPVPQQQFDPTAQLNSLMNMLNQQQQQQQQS


Legend:
[1] = target: T1, Nrd1-TAP (S. cerevisiae (strains isogenic to BY4741)); experiment: affinity purification with mass spectrometry; Tandem Affinity Purification (TAP) of the TAP-tagged bait from yeast lysate of WT or rtr1Δ cells (TAP lysis buffer: 40mM Hepes-KOH pH 7.5, 10% glycerol, 100mM NaCl, 0.1% Tween-20; lysate treated with DNase I and heparin); MudPIT-LC/MS/MS; SAINT probability and prey-prey correlation, n = 4 biological replicates per genotype
[2] = target: Pcf11-FLAG (S. cerevisiae (strains isogenic to BY4741)) (UniProt P39081); experiment: affinity purification with mass spectrometry; single-step purification of the FLAG-tagged bait on anti-FLAG agarose (4°C overnight) from yeast lysate of WT or rtr1Δ cells, on-bead trypsin digestion; MudPIT-LC/MS/MS; SAINT probability and prey-prey correlation, n = 4 biological replicates per genotype
[3] = target: Ssu72-FLAG (S. cerevisiae (strains isogenic to BY4741)) (UniProt P53538); experiment: as above
[4] = target: Pcf11-TAP (S. cerevisiae (strains isogenic to BY4741)) (UniProt P39081); experiment: affinity purification with mass spectrometry; Pcf11 purifications from rtr1Δ cells only (cells lacking the CTD phosphatase Rtr1); MudPIT-LC/MS/MS; SAINT probability and prey-prey correlation
[5] = target: Pcf11-TAP (S. cerevisiae (strains isogenic to BY4741)) (UniProt P39081); experiment: affinity purification with mass spectrometry; Tandem Affinity Purification (TAP) of the TAP-tagged bait from yeast lysate of WT or rtr1Δ cells (TAP lysis buffer: 40mM Hepes-KOH pH 7.5, 10% glycerol, 100mM NaCl, 0.1% Tween-20; lysate treated with DNase I and heparin); MudPIT-LC/MS/MS; SAINT probability and prey-prey correlation, n = 4 biological replicates per genotype
[6] = target: T1, Nrd1-TAP (S. cerevisiae (strains isogenic to BY4741)); experiment: as above; remark: listed apart in the source
[7] = target: Pcf11-TAP (S. cerevisiae (strains isogenic to BY4741)) (UniProt P39081); experiment: as above; remark: listed apart in the source

binding [1]	binding [2]	Molecule	further results
binds		Cbc2 (from UniProt Q08920 1-208)	
binds		Rpb1 (from UniProt P04050 1-1733)	binding [3]: binds
binds		Sen1 (from UniProt Q00416 1-2231)	
	binds	Clp1 (protein, UniProt Q08685 1-445) MASLPGIDEHTTSEELITGDNEWHKLVIPKGSDWQIDLKAEGKLIVKVNSGIVEIFGTELAVDDEYTFQNWKFPIYAVEETELLWKCPDLTTNTITVKPNHTMKYIYNLHFMLEKIRMSNFEGPRVVIVGGSQTGKTSLSRTLCSYALKFNAYQPLYINLDPQQPIFTVPGCISATPISDILDAQLPTWGQSLTSGATLLHNKQPMVKNFGLERINENKDLYLECISQLGQVVGQRLHLDPQVRRSGCIVDTPSISQLDENLAELHHIIEKLNVNIMLVLCSETDPLWEKVKKTFGPELGNNNIFFIPKLDGVSAVDDVYKRSLQRTSIREYFYGSLDTALSPYAIGVDYEDLTIWKPSNVFDNEVGRVELFPVTITPSNLQHAIIAITFAERRADQATVIKSPILGFALITEVNEKRRKLRVLLPVPGRLPSKAMILTSYRYLE	binding [7]: binds

Second part, the molecule before the results:

Molecule	binding [1]	binding [2]	further results
Pap1 (from UniProt P29468 1-568)		binds	
Rpb2 (from UniProt P08518 1-1224)			binding [3]: binds; binding [4]: no binding (only cells lacking Rtr1 (rtr1Δ)); binding [5]: binds
Sto1 (from UniProt P34160 1-861)	binds		
Nab3 (protein, UniProt P38996 1-802) MSDENHNSDVQDIPSPELSVDSNSNENELMNNSSADDGIEFDAPEEEREAEREEENEEQHELEDVNDEEEEDKEEKGEENGEVINTEEEEEEEHQQKGGNDDDDDDNEEEEEEEEDDDDDDDDDDDDEEEEEEEEEEGNDNSSVGSDSAAEDGEDEEDKKDKTKDKEVELRRETLEKEQKDVDEAIKKITREENDNTHFPTNMENVNYDLLQKQVKYIMDSNMLNLPQFQHLPQEEKMSAILAMLNSNSDTALSVPPHDSTISTTASASATSGARSNDQRKPPLSDAQRRMRFPRADLSKPITEEEHDRYAAYLHGENKITEMHNIPPKSRLFIGNLPLKNVSKEDLFRIFSPYGHIMQINIKNAFGFIQFDNPQSVRDAIECESQEMNFGKKLILEVSSSNARPQFDHGDHGTNSSSTFISSAKRPFQTESGDMYNDDNGAGYKKSRRHTVSCNIFVKRTADRTYAIEVFNRFRDGTGLETDMIFLKPRMELGKLINDAAYNGVWGVVLVNKTHNVDVQTFYKGSQGETKFDEYISISADDAVAIFNNIKNNRNNSRPTDYRAMSHQQNIYGAPPLPVPNGPAVGPPPQTNYYQGYSMPPPQQQQQQPYGNYGMPPPSHDQGYGSQPPIPMNQSYGRYQTSIPPPPPQQQIPQGYGRYQAGPPPQPPSQTPMDQQQLLSAIQNLPPNVVSNLLSMAQQQQQQPHAQQQLVGLIQSMQGQAPQQQQQQLGGYSSMNSSSPPPMSTNYNGQNISAKPSAPPMSHQPPPPQQQQQQQQQQQQQQQQPAGNNVQSLLDSLAKLQK			binding [6]: binds
Rna14 (protein, UniProt P25298 1-677) MSSSTTPDLLYPSADKVAEPSDNIHGDELRLRERIKDNPTNILSYFQLIQYLETQESYAKVREVYEQFHNTFPFYSPAWTLQLKGELARDEFETVEKILAQCLSGKLENNDLSLWSTYLDYIRRKNNLITGGQEARAVIVKAFQLVMQKCAIFEPKSSSFWNEYLNFLEQWKPFNKWEEQQRIDMLREFYKKMLCVPFDNLEKMWNRYTQWEQEINSLTARKFIGELSAEYMKARSLYQEWLNVTNGLKRASPINLRTANKKNIPQPGTSDSNIQQLQIWLNWIKWERENKLMLSEDMLSQRISYVYKQGIQYMIFSAEMWYDYSMYISENSDRQNILYTALLANPDSPSLTFKLSECYELDNDSESVSNCFDKCTQTLLSQYKKIASDVNSGEDNNTEYEQELLYKQREKLTFVFCVYMNTMKRISGLSAARTVFGKCRKLKRILTHDVYVENAYLEFQNQNDYKTAFKVLELGLKYFQNDGVYINKYLDFLIFLNKDSQIKTLFETSVEKVQDLTQLKEIYKKMISYESKFGNLNNVYSLEKRFFERFPQENLIEVFTSRYQIQNSNLIKKLELTYMYNEEEDSYFSSGNGDGHHGSYNMSSSDRKRLMEETGNNGNFSNKKFKRDSELPTEVLDLLSVIPKRQYFNTNLLDAQKLVNFLNDQVEIPTVESTKSG		binds	binding [7]: binds
Rna15 (protein, UniProt P25299 1-296) MNRQSGVNAGVQNNPPSRVVYLGSIPYDQTEEQILDLCSNVGPVINLKMMFDPQTGRSKGYAFIEFRDLESSASAVRNLNGYQLGSRFLKCGYSSNSDISGVSQQQQQQYNNINGNNNNNGNNNNNSNGPDFQNSGNANFLSQKFPELPSGIDVNINMTTPAMMISSELAKKPKEVQLKFLQKFQEWTRAHPEDAVSLLELCPQLSFVTAELLLTNGICKVDDLIPLASRPQEEASATNNNSVNEVVDPAVLNKQKELLKQVLQLNDSQISILPDDERMAIWDLKQKALRGEFGAF		binds	binding [7]: binds
Fip1 (protein, UniProt P45976 1-327) MSSSEDEDDKFLYGSDSELALPSSKRSRDDEADAGASSNPDIVKRQKFDSPVEETPATARDDRSDEDIYSDSSDDDSDSDLEVIISLGPDPTRLDAKLLDSYSTAATSSSKDVISVATDVSNTITKTSDERLITEGEANQGVTATTVKATESDGNVPKAMTGSIDLDKEGIFDSVGITTIDPEVLKEKPWRQPGANLSDYFNYGFNEFTWMEYLHRQEKLQQDYNPRRILMGLLSLQQQGKLNSANDTDSNLGNIIDNNNNVNNANMSNLNSNMGNSMSGTPNPPAPPMHPSFPPLPMFGSFPPFPMPGMMPPMNQQPNQNQNQNSK		binds	

Where two headings read alike, the source gives them in different places. No constants are given. Whether binding was seen depends on the method and setting. Binding seen in cells or lysates may run through a third protein. A yes stands for co-enrichment or nearness to the bait. Other partners may have been found. For some assays here: No binding means not detected with the bait.
